# Source: PubChem BioAssay AID445 (National Center for Advancing Translational Sciences (NCATS), 2006)
# This is one part of the list. Further columns of the screen follow, without active or inactive calls. Most of these compounds were active or inconclusive in the main read-out, so they are no random draw. Words in brackets tell the shape of the fitted curve; partial curves, single points and poor fits give uncertain potencies.
# Assay: IkB Signaling
# Conditions: ABC-DLBCL IkBa-CBG/CBR dual luciferase ratio (green luciferase fused to IkBa over red control in OCI-Ly3 lymphoma cells), 4 h
# In short: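 Luminescence ratio of IκBα-fused green versus native red beetle luciferase in OCI-Ly3 cells, 4 h post-doxycycline with compound; red signal alone, scaled from basal (0%) to zero light (-100%), flagged nonspecific or cytotoxic effects.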
# [1] = measured here: control luc red channel unless noted
compound,measurement,setting,value
COc1cc(OC)cc(C(=O)Nc2nc(-c3nnn(-c4ccc(C)cc4)c3C)ns2)c1,AC50,[1],"15.8 µM [rising, partial curve]"
OC(CN1CCN(c2cccc(C(F)(F)F)c2)CC1)c1c[nH]c2ccccc12 (stereo not drawn),AC50,[1],"15.8 µM [falling, partial curve]"
CCCCNc1nc(N(C)c2ccccc2)nc(-n2ccnc2)n1,AC50,[1],"10 µM [falling, partial curve]"
CCOC(=O)C1CCN(CC(=O)Nc2c(C(=O)OC)[nH]c3ccc(Cl)cc23)CC1,AC50,[1],"31.6 µM [falling, partial curve]"
COc1ccccc1NC(=O)N1CCn2c(nc3ccccc32)C1,AC50,[1],"5.01 µM [falling, partial curve]"
CCOc1ccc(CCNC(=O)CSCc2nc(-c3cccc(C)c3)oc2C)cc1OCC,AC50,[1],"31.6 µM [falling, partial curve]"
CCc1cccc2c(-c3ccccc3)nc(SCC(=O)Nc3ccc(OC)cc3)nc12,AC50,[1],"2.51 µM [rising, partial curve]"
Cc1cc2nn(-c3ccccc3)nc2cc1NC(=O)Cc1ccc(Cl)cc1,AC50,[1],"2 µM [rising, partial curve]"
C=C(Cl)COc1ccc2c(C)cc(=O)oc2c1,AC50,[1],"3.16 µM [rising, partial curve]"
Cc1cccc(C)c1NC(=O)CSc1nc(-c2cccs2)cc(C(F)(F)F)n1,AC50,[1],"1.26 µM [rising, full curve, poor fit]"
O=C(COC(=O)c1cc(-c2ccco2)nc2ccccc12)NCc1ccc2c(c1)OCO2,AC50,[1],"10 µM [falling, partial curve]"
O=C(Nc1ccc(N2CCN(C(=O)c3ccco3)CC2)c(Cl)c1)c1cccs1,AC50,[1],"7.94 µM [falling, full curve]"
O=C(Nc1ccc(F)c(Cl)c1)C1CCCN(S(=O)(=O)c2cccc3nsnc23)C1 (stereo not drawn),AC50,[1],"10 µM [falling, partial curve]"
COc1ccc(CCN(Cc2nc3ccccc3c(=O)[nH]2)C(=O)c2ccco2)cc1,AC50,[1],"15.8 µM [falling, partial curve]"
O=c1c2c3nc4ccccc4nc3n(Cc3ccccc3)c2ncn1Cc1ccco1,AC50,[1],"12.6 µM [falling, partial curve]"
Cc1cc(C(=O)Nc2ccccc2C#N)n(-c2ccccc2)n1,AC50,[1],"6.31 µM [rising, single point] [measured here: IkB-luc green channel]"
CCc1ccccc1NC(=O)CCc1c(C)nc2cc(-c3ccccc3)nn2c1C,AC50,[1],"25.1 µM [falling, partial curve]"
O=C(N/N=C\c1ccccc1O)c1ccccc1O,AC50,[1],"0.794 µM [falling, full curve]"
O=C(NC1CC(=O)N(c2ccc(Cl)cc2)C1)C(=O)c1c[nH]c2ccccc12 (stereo not drawn),AC50,[1],"3.16 µM [rising, single point]"
Cc1ccc2nc3c(cc2c1)CN(Cc1ccco1)C(=NCC1CCCO1)S3 (stereo not drawn),AC50,[1],"10 µM [falling, partial curve]"
CC1CCCN(CCC(=O)c2ccc(Br)cc2)C1 (stereo not drawn),AC50,[1],"15.8 µM [falling, partial curve]"
CC(=O)N1CCc2c(sc3c2c(=O)n(CCc2ccccc2)c(=O)n3Cc2ccc(F)cc2)C1,AC50,[1],"15.8 µM [falling, partial curve]"
CCOC(=O)Cc1c(C)nc2c(-c3ccc(Cl)cc3)c[nH]n2c1=O,AC50,[1],"3.98 µM [falling, partial curve]"
Cc1ccccc1NC(=O)Cn1c(=O)n(CCCCCC(=O)NCc2ccc3c(c2)OCO3)c(=O)c2sccc21,AC50,[1],"39.8 µM [falling, single point]"
O=C(Nc1nc(-c2ccc(S(=O)(=O)N3CCCC3)cc2)cs1)C1COc2ccccc2O1 (stereo not drawn),AC50,[1],"3.16 µM [falling, full curve]"
CCc1ccc(-n2c(CCC(=O)O)ccc2-c2cccs2)cc1,AC50,[1],"12.6 µM [falling, partial curve]"
COc1ccc(-c2nsc(NC(=O)c3ccccc3Br)n2)cc1,AC50,[1],"5.01 µM [falling, partial curve]"
CCOC(=O)Nc1ccc2c(c1)N(C(=O)CCN1CCOCC1)c1ccccc1S2=O (stereo not drawn),AC50,[1],"39.8 µM [falling, single point]"
CCCCNC(=O)NS(=O)(=O)c1ccc(NS(=O)(=O)c2ccccc2)cc1,AC50,[1],"0.0794 µM [rising, partial curve, poor fit]"
CCOC(=O)c1ccc(NC(=O)CN2C(=O)C(C)(C)c3ccccc32)cc1,AC50,[1],"7.94 µM [rising, single point]"
CCCCCCC(c1c(C)n(C)n(-c2ccccc2)c1=O)c1c(C)n(C)n(-c2ccccc2)c1=O,AC50,measured here: IkB-luc green channel,"20 µM [falling, single point]"
same,AC50,measured here: control luc red channel,"25.1 µM [falling, partial curve]"
Cc1ccc(C)c(NC(=O)c2cnn(-c3ccc(F)cc3F)c2C2CCNCC2)c1,AC50,[1],"6.31 µM [falling, partial curve]"
O=C(Nc1ccccc1)N1CC=C(c2ccccc2)CC1,AC50,[1],"2 µM [falling, full curve, poor fit]"
CCC(c1nnnn1Cc1ccco1)N(CCc1ccccc1)Cc1cc2cccc(C)c2[nH]c1=O (stereo not drawn),AC50,[1],"31.6 µM [falling, partial curve]"
CCCC12CN3CC(CCC)(CN(C1)C3c1ccc(OCc3ccccc3)cc1)C2=O (stereo not drawn),AC50,[1],"39.8 µM [falling, single point]"
Fc1ccccc1C(NCCc1ccc(Cl)cc1)c1nnc(-c2ccccc2)o1 (stereo not drawn),AC50,[1],"20 µM [falling, partial curve]"
Cc1ccc(-c2nc(-c3cccnc3)no2)cc1,AC50,[1],"20 µM [falling, single point]"
COc1ccccc1NC(=O)CN(C)S(=O)(=O)c1cccc2cccnc12,AC50,[1],"1.26 µM [rising, partial curve]"
Cc1ccc(Nc2ccc(N3CCN(C(=O)c4cccc([N+](=O)[O-])c4)CC3)nn2)cc1,AC50,[1],"20 µM [falling, single point]"
CCN(C(=O)c1sc2nc3n(c(=O)c2c1C)CCCC3)c1ccccc1F,AC50,[1],"3.98 µM [rising, partial curve]"
Cc1cccc(OCC(=O)Nc2ccc(S(=O)(=O)N3CCCC3)cc2)c1,AC50,[1],"15.8 µM [falling, partial curve]"
CN(C)c1ccc(C(CNC(=O)c2ccc(C(C)(C)C)cc2)N2CCCC2)cc1 (stereo not drawn),AC50,[1],"20 µM [falling, partial curve]"
Cc1cn2c(=O)cc(COc3ccc(NC(=O)c4ccc(C(C)(C)C)cc4)cc3)nc2s1,AC50,[1],"3.16 µM [rising, full curve]"
COc1ccc(-n2nc(C(=O)NCCc3ccc(Cl)cc3)c3c4ccccc4n(C)c3c2=O)cc1,AC50,[1],"1 µM [falling, full curve]"
COc1ccc(C2c3c(-c4ccccc4)n[nH]c3C(=O)N2c2ccc(C(=O)O)cc2)c(OC)c1 (stereo not drawn),AC50,[1],"15.8 µM [falling, partial curve]"
Cc1ccc(-c2cnc(C3CC3)o2)cc1S(=O)(=O)Nc1cccc(C#N)c1,AC50,[1],"39.8 µM [falling, single point]"
OCCN(CCO)c1nc(N2CCCCC2)c2nc(N(CCO)CCO)nc(N3CCCCC3)c2n1,AC50,[1],"39.8 µM [falling, single point]"
CN(Cc1ccccc1)C(=O)CSc1c2c(nc3ccc(Cl)cc13)CCCC2,AC50,[1],"7.94 µM [falling, partial curve]"
Cc1ccc(-c2c(CN3CCN(c4cccc(C)c4C)CC3)csc2C)cc1,AC50,[1],"20 µM [falling, single point]"
CCC(C)(C)n1nnnc1CN(Cc1ccc(Cl)cc1)Cc1ccco1,AC50,[1],"15.8 µM [falling, partial curve]"
Cc1ccccc1NC(=O)Cn1c(=O)n(CCC(=O)N2CCc3ccccc3C2)c(=O)c2ccccc21,AC50,[1],"25.1 µM [falling, partial curve]"
COc1ccc(NS(=O)(=O)c2cc(-c3onc(C)c3C)ccc2C)c(OC)c1,AC50,[1],"25.1 µM [falling, partial curve]"
CCC1CN(C(=O)N2CCC(C(=O)NCCCc3ccccc3)CC2)c2cc(C)ccc2O1 (stereo not drawn),AC50,[1],"5.01 µM [falling, partial curve]"
CCn1c(SCC(=O)Nc2nc3ccc(OC)cc3s2)nc2c1c(=O)n(C)c(=O)n2C,AC50,[1],"12.6 µM [falling, partial curve]"
COc1ccc(NC(=O)CCS(=O)(=O)c2cc3c(cc2C)NC(=O)CO3)cc1Cl,AC50,[1],"7.94 µM [falling, partial curve]"
CCCc1cnc2c(c1SCC(=O)Nc1ccc([N+](=O)[O-])cc1)c(=O)n(C)c(=O)n2C,AC50,[1],"2 µM [falling, full curve]"
Cc1ccc(C2CC(=O)n3nc(-c4ccc(F)cc4)nc3S2)cc1 (stereo not drawn),AC50,[1],"20 µM [falling, partial curve, poor fit]"
CCCC(C(=O)NCc1ccco1)N(C(=O)CNS(=O)(=O)c1ccc(Cl)cc1)C1CCCC1 (stereo not drawn),AC50,[1],"3.98 µM [falling, full curve]"
CCOC(=O)c1ccccc1NC(=O)N(Cc1ccc(CC)cc1)Cc1cn[nH]c1-c1ccc(OC)cc1,AC50,[1],"20 µM [falling, partial curve]"
COc1cccc(C(=O)N(Cc2ccco2)Cc2cc3cccc(C)c3[nH]c2=O)c1,AC50,[1],"7.94 µM [falling, partial curve]"
CCc1ccccc1NC(=O)C1(S(=O)(=O)c2ccc(Cl)cc2)CC1,AC50,[1],"1.26 µM [rising, partial curve]"
Cc1ccc(OCC(=O)Nc2ccc(Cl)c(-c3nc4ncccc4o3)c2)cc1C,AC50,[1],"25.1 µM [falling, partial curve]"

# Reprinted from above (three entries):
compound,measurement,setting,value
C=C(Cl)COc1ccc2c(C)cc(=O)oc2c1,AC50,[1],"3.16 µM [rising, partial curve]"
Cc1cccc(C)c1NC(=O)CSc1nc(-c2cccs2)cc(C(F)(F)F)n1,AC50,[1],"1.26 µM [rising, full curve, poor fit]"
O=C(COC(=O)c1cc(-c2ccco2)nc2ccccc12)NCc1ccc2c(c1)OCO2,AC50,[1],"10 µM [falling, partial curve]"

# An excerpt of these results, tab-delimited.
compound	measurement	setting	value
CCCCCCC(c1c(C)n(C)n(-c2ccccc2)c1=O)c1c(C)n(C)n(-c2ccccc2)c1=O	AC50	measured here: control luc red channel	25.1 µM [falling, partial curve]
Cc1ccc(C)c(NC(=O)c2cnn(-c3ccc(F)cc3F)c2C2CCNCC2)c1	AC50	[1]	6.31 µM [falling, partial curve]
